# Screening data, single-dose tests

Measurements from “University of Dundee, Small-Polar-MMV Screening Library” (2021), ChEMBL document CHEMBL3988442.

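Whole-parasite assay of Trypanosoma brucei over 72 hours; the read-out is not stated. Concentration: 30 µM. Direction is inferred from retests: higher values go with stronger inhibition. Values scatter widely below zero; nearly all retest evidence comes from the higher of the two concentrations used. Size under these conditions: about 64,000 compounds, about 940 of them at 50% or above in at least one test.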

Values are the deposited “Percent Effect”, in %.
How 0% and 100% were set is not recorded. Most values in the screen are low, and negative values occur.
Compounds were drawn at random from those tested, without regard to their results.

Result for Cc1cccc(C(=O)Nc2cccc3c2CCCC3)n1 was -24.58%.
Result for COc1ccc(CNc2cnn(C)c(=O)c2Cl)cc1 was -0.04198%.
Result for Cc1sc(CNS(N)(=O)=O)nc1-c1ccc(Cl)cc1 was 12.58%.
Result for O=S(=O)(c1cccnc1)N1CCN(CCn2ccnc2)CC1 was -68.23%.
Result for CC(NC(N)=O)C(=O)Nc1ccc(OCc2cccc(F)c2)c(F)c1 (stereo not given) was -5.764%.
Result for O=C(O)C(F)(F)F.[H][C@@]12CCN(Cc3nccs3)[C@]1([H])CC[C@@H](C(=O)N(C)C)O2 was -13.13%.
Result for Cc1nc(C2CCCN2CC(=O)Nc2cc(C(C)(C)C)nn2C)no1 (stereo not given) was 5.833%.
Result for CC(=O)Nc1ncc(S(=O)(=O)Nc2cccc(C)c2)s1 was -22.45%.
Result for Cc1ccccc1OC1CN(Cc2c(C)nc3ccccn23)C1 was 15.1%.
Result for Cc1nn(C)cc1NC(=O)CN1CCN(C2CCCC2)C(=O)C1 was -16.64%.
Result for Cc1nccc(CNC(=O)NC(c2ncc(C)s2)C2CC2)n1 (stereo not given) was -69.67%.
Result for CCc1ccc(C(C)NC(=O)CN(C)Cc2ccc(C)o2)cc1 (stereo not given) was -50.41%.
Result for Cc1ccc(-c2nc(CN3CCOC(Cn4cccn4)C3)cs2)o1 (stereo not given) was 2.519%.
Result for CCc1nc(CN2CCCC(NCc3ccc(C(N)=O)cc3)C2)no1 (stereo not given) was -7.536%.
Result for CCN1CC2(CCCCN2C(=O)c2ccsc2)CC1=O (stereo not given) was 8.422%.
Result for COc1ccc(CNCC2CCN(c3ccccc3OC)C2)cc1O (stereo not given) was 47.62%.
Result for Cc1nc(CN(C)C2CCCN(c3cccnn3)C2)oc1C (stereo not given) was 9.947%.
Result for O=C(C1CNCCN1C(=O)CCOc1ccccc1)N1CCCC1 (stereo not given) was -54.11%.
Result for Cc1ccc(CN2CCc3ncnc(-c4cccnc4)c3CC2)o1.O=C(O)C(F)(F)F.O=C(O)C(F)(F)F was -25.59%.
Result for CCCc1cc(NC(=O)c2cccc(N3CCCNC3=O)c2)n[nH]1 was -228.2%.
Result for [H][C@@]12CCN(C(=O)c3ccnnc3)C[C@@]1([H])O[C@@H](c1nc(C)cs1)C2 was -56.3%.
Result for Cc1cc(C)n(CC2CN(Cc3cccc(C(N)=O)c3)CCO2)n1 (stereo not given) was 15.96%.
Result for CS(=O)(=O)CCCN1CCN(C(C#N)c2ccccc2)CC1 (stereo not given) was -14.78%.
Result for NC(=O)CN1CCC(NC(=O)COCCOc2ccccc2)CC1 was 0.9741%.
Result for O=C(c1ccccc1-c1nnn[nH]1)N1CCOC(C(F)(F)F)C1 (stereo not given) was -21.16%.
Result for O=C(CN1CCCC1=O)NCc1cccnc1Oc1ccc(F)c(F)c1 was -41.24%.
Result for [H][C@@]12C[C@H](c3nnc(C)o3)O[C@@]1([H])CCN(C(=O)Cc1ccc(F)cc1)C2 was -42.7%.
Result for Cc1nn(C)c(C)c1S(=O)(=O)NCC(C)(O)c1ccc2c(c1)OCO2 (stereo not given) was 2.189%.
Result for Cl.NCCCNS(=O)(=O)Cc1ccc(Br)cc1 was -9.609%.
Result for CCn1cnnc1CNC(=O)N1CCC(C)CC1 was -22.42%.
Result for CN(CCNC(=O)c1cnc(-c2ccccc2)nc1)S(C)(=O)=O was 23.88%.
Result for CN(Cc1ccsc1)C(=O)c1cccc(S(=O)(=O)NC(C)(C)C)c1 was 23.79%.

The last 2 entries again:

* CN(CCNC(=O)c1cnc(-c2ccccc2)nc1)S(C)(=O)=O : 23.88%
* CN(Cc1ccsc1)C(=O)c1cccc(S(=O)(=O)NC(C)(C)C)c1 : 23.79%